{"sequences": {"note": "Sequences of proteins named here, by UniProt entry; tags and fusion partners are left off.", "UniProt P18054, whole entry, looked up": "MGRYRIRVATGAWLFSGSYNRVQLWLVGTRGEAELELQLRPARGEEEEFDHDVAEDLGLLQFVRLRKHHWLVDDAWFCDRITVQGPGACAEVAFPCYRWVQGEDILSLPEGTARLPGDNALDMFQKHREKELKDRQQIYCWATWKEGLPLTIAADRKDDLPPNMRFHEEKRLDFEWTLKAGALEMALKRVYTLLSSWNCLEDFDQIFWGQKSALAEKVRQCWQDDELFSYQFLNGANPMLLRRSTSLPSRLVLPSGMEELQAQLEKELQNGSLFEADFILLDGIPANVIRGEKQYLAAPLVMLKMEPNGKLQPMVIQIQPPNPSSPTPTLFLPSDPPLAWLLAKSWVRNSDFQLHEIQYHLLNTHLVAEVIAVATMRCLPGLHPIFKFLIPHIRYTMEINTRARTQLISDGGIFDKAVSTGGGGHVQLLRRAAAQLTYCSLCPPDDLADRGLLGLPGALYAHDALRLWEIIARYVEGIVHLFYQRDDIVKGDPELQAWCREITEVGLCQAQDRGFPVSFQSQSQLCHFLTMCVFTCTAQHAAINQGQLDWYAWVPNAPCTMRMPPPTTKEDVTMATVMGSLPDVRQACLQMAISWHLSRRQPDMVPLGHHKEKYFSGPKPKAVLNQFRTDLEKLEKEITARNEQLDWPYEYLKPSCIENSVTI"}, "source": "PubChem BioAssay AID1671190", "about": "(National Center for Advancing Translational Sciences (NCATS), 2021)", "note": "The campaign covered roughly 580,000 compounds. About 6,100 (1.1%) were called active. The shares of active, inactive and inconclusive entries below differ from those in the screen. Calls follow the shape of the dose curve; as a rule, active = well fitted inhibition curve with a large enough effect; inconclusive = small, poorly fitted or top-dose-only effect, or another doubt; inactive = no such curve, though single readings can be large or run the other way. Where the call is inconclusive, the potency comes from a doubtful curve fit. Potency is read from the fitted curve at half-maximal effect.", "data": [{"target": "Polyunsaturated fatty acid lipoxygenase ALOX12 (Homo sapiens) (UniProt P18054)", "test": "Primary qHTS assay for inhibitors of human arachidonate 12S-lipoxygenase (ALOX12): Round 2", "conditions": "purified 12hLO, xylenol orange hydroperoxide absorbance; series mostly up to 108 µM", "how_it_was_run": "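Purified human 12hLO at 150 nM in 25 mM Hepes, 0.01% Triton X-100, pH 7.0, preincubated 15 min at room temperature with compound. Reaction started with 40 uM arachidonic acid, 30 min at room temperature. Hydroperoxide measured by Fe-xylenol orange, 573/405 nm absorbance ratio.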", "values": [{"smiles": "COc1ccc(Cc2nnc(NC(=O)C3CC(=O)N(CCc4ccc(F)cc4)C3)s2)cc1OC", "note": "(stereo not drawn)", "Potency": "inconclusive: 89.1 µM [inhibitor, single point]"}, {"smiles": "CCOC(=O)C1=C[C@@H](C(C)(C)C)N(S(=O)(=O)c2ccc(C)cc2)[C@H]1c1ccccc1", "Potency": "inconclusive: 3.98 µM [inhibitor, full curve, poor fit]"}, {"smiles": "O=C(OC(C(=O)NCc1ccccc1)c1ccccc1F)c1ccco1", "note": "(stereo not drawn)", "Potency": "inconclusive: 39.8 µM [inhibitor, partial curve, poor fit]"}, {"smiles": "O=C(/C=C/c1ccco1)NC(=S)Nc1cccc(-c2nc3ccccc3s2)c1", "Potency": "inconclusive: 31.6 µM [inhibitor, partial curve, poor fit]"}, {"smiles": "COc1cccc(C(=O)NC(=S)Nc2ccccc2N2CCCC2)c1", "Potency": "inconclusive: 44.7 µM [inhibitor, partial curve, poor fit]"}, {"smiles": "CCOC(=O)c1ccc(S(=O)(=O)N2CCN(CC3CC=CCC3)CC2)cc1", "note": "(stereo not drawn)", "Potency": "inactive"}, {"smiles": "O=C(O)c1cc(NN=C2c3ccccc3-c3ccccc32)ccc1Cl", "Potency": "inconclusive: 56.2 µM [inhibitor, partial curve, poor fit]"}, {"smiles": "N#Cc1ccc(S(=O)(=O)N[C@H]2[C@H](O)[C@H](O)C[C@@H]2c2ccc(C(F)(F)F)cc2)cc1", "Potency": "inconclusive: 56.2 µM [inhibitor, partial curve]"}, {"smiles": "CN(C)S(=O)(=O)c1cccc(NC(=O)C2Cc3ccccc3CN2C(=O)c2ccco2)c1", "note": "(stereo not drawn)", "Potency": "inconclusive: 35.5 µM [inhibitor, partial curve, poor fit]"}, {"smiles": "O=C(O)c1cccc(NC(=O)c2ccc3c(c2)C(=O)N(Cc2ccco2)C3=O)c1", "Potency": "inconclusive: 100 µM [inhibitor, partial curve, poor fit]"}, {"smiles": "CCOc1ccc(-n2c(=S)sc3c(=O)[nH]c(SCC(=O)C(C)(C)C)nc32)cc1", "Potency": "inactive"}, {"smiles": "COc1ccc(C=O)cc1Cn1c(C)cc(C)c(C#N)c1=O", "Potency": "inconclusive: 89.1 µM [inhibitor, single point]"}, {"smiles": "O=C(Nc1cccc(F)c1)c1ccc(-c2ccccc2)s1", "Potency": "inconclusive: 56.2 µM [inhibitor, partial curve, poor fit]"}, {"smiles": "Cn1c(SCC(=O)Nc2nc3ccccc3s2)nnc1-c1ccccc1", "Potency": "inconclusive: 0.0794 µM [inhibitor, full curve, poor fit]"}, {"smiles": "O=C(Nc1nnc(C2CC2)s1)C1Cc2ccccc2CN1C(=O)c1ccco1", "note": "(stereo not drawn)", "Potency": "inactive"}, {"smiles": "COC(=O)c1ccc(-c2ccco2)n1Cc1nc(-c2ccc(OC)c(OC)c2)oc1C", "Potency": "inconclusive: 31.6 µM [inhibitor, partial curve, poor fit]"}, {"smiles": "O=C(NNS(=O)(=O)c1ccccc1)c1cnn(-c2ccc(Cl)cc2)c1C(F)(F)F", "Potency": "inconclusive: 112 µM [inhibitor, single point]"}, {"smiles": "CCc1cccc2c(C(=O)C(=O)NCc3cccc(OC)c3)c[nH]c12", "Potency": "inconclusive: 35.5 µM [inhibitor, partial curve, poor fit]"}, {"smiles": "O=C1CN(C(=O)[C@H]2CN(Cc3ccccc3)C[C@H]2C(=O)O)CCN1", "Potency": "inactive"}, {"smiles": "CC(Oc1ccccc1Cl)C(=O)Nc1cc(-c2ccc(F)c(F)c2)no1", "note": "(stereo not drawn)", "Potency": "inconclusive: 39.8 µM [inhibitor, partial curve, poor fit]"}, {"smiles": "Cc1ccc(-n2nnnc2C(Cl)(Cl)c2nnnn2-c2ccc(C)cc2)cc1", "Potency": "inconclusive: 2.82 µM [inhibitor, full curve]"}, {"smiles": "Cc1ccccc1S(=O)(=O)N(C)C[C@@H]1OCc2cn(nn2)CCCC(=O)N([C@@H](C)CO)C[C@H]1C", "Potency": "inconclusive: 126 µM [inhibitor, single point]"}, {"smiles": "OC(COc1c(F)cc(Br)cc1F)CN1CCOCC1", "note": "(stereo not drawn)", "Potency": "inactive"}, {"smiles": "NS(=O)(=O)c1ccc(NC(=O)CSc2nc3ccccc3n2-c2ccccc2)cc1", "Potency": "inconclusive: 3.55 µM [inhibitor, full curve, poor fit]"}, {"smiles": "COc1ccc(/C=C/C(=O)NC(=S)Nc2cc([N+](=O)[O-])ccc2O)cc1OC", "Potency": "inconclusive: 1.12 µM [inhibitor, partial curve, poor fit]"}, {"smiles": "O=[N+]([O-])c1ccc(O)c(-c2nn[nH]n2)c1", "Potency": "inactive"}, {"smiles": "Cc1ccc2c(c1)N(Cc1ccc([N+](=O)[O-])cc1)C=NS2(=O)=O", "Potency": "inconclusive: 0.251 µM [inhibitor, full curve, poor fit]"}, {"smiles": "Cc1ccc(C2C(C#N)=C(N)Oc3n[nH]c(-c4cccs4)c32)s1", "note": "(stereo not drawn)", "Potency": "inconclusive: 89.1 µM [inhibitor, single point]"}, {"smiles": "O=C(Nc1ncc(S(=O)(=O)c2ccc([N+](=O)[O-])cc2)s1)c1ccc2ccccc2c1", "Potency": "inactive"}, {"smiles": "Cc1ccccc1Nc1c(-c2cccs2)nc2cccc(C)n12", "Potency": "inactive"}, {"smiles": "CC1Cc2cc(S(=O)(=O)N(Cc3ccccc3)C(C)C)ccc2N1C(=O)C1CCC1", "note": "(stereo not drawn)", "Potency": "inactive"}, {"smiles": "CC1CC(C)CN(CCCCOc2ccc([N+](=O)[O-])cc2)C1", "note": "(stereo not drawn)", "Potency": "inconclusive: 2.24 µM [inhibitor, full curve, poor fit]"}, {"smiles": "COC1CCN(C(=O)C(C)(C)Oc2nn(CCOc3ccccc3)c3ccccc23)CC1", "Potency": "inconclusive: 141 µM [inhibitor, partial curve, poor fit]"}, {"smiles": "C[C@@H](NC(=O)[C@@H]1CCCN1C(=O)[C@@H]1CCCN1C(=O)c1cccc(Cl)c1)c1ccccc1", "Potency": "inconclusive: 112 µM [inhibitor, single point]"}, {"smiles": "COc1ccc(C(=O)Nc2ccccc2C(=O)NC(Cc2ccc(O)cc2)C(=O)NNC(=O)c2ccc(C)cc2)cc1", "note": "(stereo not drawn)", "Potency": "inactive"}, {"smiles": "CCOC(=O)C1=C(COC(=O)C(C)(C)Oc2ccc(Cl)cc2)NC(=O)NC1C", "note": "(stereo not drawn)", "Potency": "inconclusive: 50.1 µM [inhibitor, single point]"}, {"smiles": "CC(=O)c1ccc(OCC(O)CN2CCN(c3ccc(F)cc3)CC2)cc1", "note": "(stereo not drawn)", "Potency": "inconclusive: 35.5 µM [inhibitor, single point]"}, {"smiles": "CCc1ccc(OCC(O)Cn2nc(-c3ccc(F)cc3)oc2=O)cc1", "note": "(stereo not drawn)", "Potency": "inconclusive: 112 µM [inhibitor, single point]"}, {"smiles": "CCOC(=O)c1c(C)oc2nc(C)nc(NCc3ccccc3OC)c12", "Potency": "inconclusive: 141 µM [inhibitor, single point]"}, {"smiles": "O=C(NCC1CCOCC1)c1cnc2n[nH]c(-c3ccccc3)c2n1", "Potency": "inactive"}, {"smiles": "COC(=O)C(c1ccccc1Cl)N1CCc2sccc2C1", "note": "(stereo not drawn)", "Potency": "inconclusive: 25.1 µM [inhibitor, single point]"}, {"smiles": "COc1ccc(-c2nc(C#N)c(NCCN(C)C)o2)cc1", "Potency": "inconclusive: 35.5 µM [inhibitor, single point]"}, {"smiles": "COc1ccccc1NC(=O)Cn1c(=O)n(CCCCCC(=O)NCc2ccccc2)c(=O)c2sccc21", "Potency": "inconclusive: 141 µM [inhibitor, partial curve, poor fit]"}, {"smiles": "COc1ccc(/C=C(/NC(=O)c2ccc(C)cc2)C(=O)NCc2ccncc2)cc1", "Potency": "inactive"}, {"smiles": "Cc1ccccc1-c1nc(N2CCN(C)CC2)c2ccccc2n1", "Potency": "inconclusive: 44.7 µM [inhibitor, partial curve, poor fit]"}, {"smiles": "O=C(/C=C/c1cccs1)NC(=S)Nc1ccc(S(=O)(=O)Nc2ccccc2C(F)(F)F)cc1", "Potency": "inactive"}, {"smiles": "O=C(Nc1ccc(C(F)(F)F)cc1)c1ccccc1-n1cnnn1", "Potency": "inconclusive: 100 µM [inhibitor, single point]"}, {"smiles": "Cc1ccc2nc(CCl)[n+]([O-])c(-c3ccccc3)c2c1", "Potency": "inconclusive: 28.2 µM [inhibitor, single point]"}, {"smiles": "O=C(O)c1cc(Cl)ccc1Br", "Potency": "inactive"}, {"smiles": "O=C(Cn1c(=O)oc2cc(S(=O)(=O)NCc3ccccc3)ccc21)NCc1ccc(Cl)cc1", "Potency": "inconclusive: 89.1 µM [inhibitor, partial curve, poor fit]"}, {"smiles": "CCOc1ccc(S(=O)(=O)Nc2ncn[nH]2)cc1", "Potency": "inconclusive: 39.8 µM [inhibitor, partial curve, poor fit]"}, {"smiles": "COC(=O)c1cc(/C=C/C(=O)O)oc1C", "Potency": "inconclusive: 1.26 µM [inhibitor, full curve, poor fit]"}, {"smiles": "Cc1ccc(C)c(C(=O)N2CCC3(CC2)NC(=O)N(c2ccccc2)N3)c1", "Potency": "inconclusive: 1.58 µM [inhibitor, full curve, poor fit]"}, {"smiles": "Fc1ccc(OCc2cc(-c3ccco3)on2)c(Br)c1", "Potency": "inconclusive: 44.7 µM [inhibitor, partial curve, poor fit]"}, {"smiles": "COC(=O)c1ccc(C23CC4(C2)[C@H](CN(C)[C@@H]4c2ccccc2)C3c2ccc(Cl)nc2)cc1", "note": "(stereo partly drawn)", "Potency": "inactive"}, {"smiles": "O=C(Nc1ccc(C2CC2(Cl)Cl)cc1)c1cccc([N+](=O)[O-])c1", "note": "(stereo not drawn)", "Potency": "inconclusive: 89.1 µM [inhibitor, single point]"}, {"smiles": "COCCNC(=O)C1COC2(CCN(C(=O)c3ccc(F)cc3)CC2)N1C(=O)c1cccc(OC)c1", "note": "(stereo not drawn)", "Potency": "inactive"}, {"smiles": "O=C1C=C(C2CCCCC2)C(=O)c2ccccc21", "Potency": "active: 44.7 µM"}, {"smiles": "Cc1ccc(-c2cc(C(=O)Oc3cccc(Br)c3)no2)cc1", "Potency": "inconclusive: 7.94 µM [inhibitor, full curve, poor fit]"}, {"smiles": "COC(=O)CSc1ccc2nnc(-c3ccc(OC)c(OC)c3)n2n1", "Potency": "inconclusive: 100 µM [inhibitor, single point]"}, {"smiles": "COC(=O)CCCC(=O)Nc1c(F)c(F)c(F)c(F)c1F", "Potency": "inconclusive: 44.7 µM [inhibitor, partial curve, poor fit]"}, {"smiles": "O=C(N[C@H]1CCN2C(=O)c3ccccc3NC(=O)[C@H]12)c1cnccn1", "Potency": "inconclusive: 39.8 µM [inhibitor, partial curve, poor fit]"}, {"smiles": "FC(F)(F)c1ccccc1-c1cc(NCc2ccccc2)ncn1", "Potency": "active: 15.8 µM"}]}]}
